Data on one molecule can be found in patent US5985822A, “Inhibition of glial cell proliferation with N-CAM homophilic peptides” (The Scripps Research Institute, priority 1995, dated 1999).

The data set has as its system rat forebrain astrocytes in primary culture. The data set can be described thus: Astrocyte proliferation assay ([3H]-thymidine incorporation normalized to [35S]-methionine). It counts as cell-based. The protocol:
Primary cultures of astrocytes were prepared from the forebrains of 4-5 day old neonatal rats. After decapitation and removal of the forebrains from the skull, the meninges were carefully peeled off, and forebrain tissue was triturated in sterile phosphate buffered saline (PBS) using firepolished pipettes. The resulting suspension of tissue fragments was incubated in Hank's balanced salt solution (Gibco BRL) with 2.5 mg/ml trypsin, 1 mM EDTA and 0.1 mg/ml DNase (Boehringer) at 37° C. for 15 minutes. […] The pellet was resuspended in serum free medium (SFM) consisting of Dulbecco's Modified Eagle Medium (D-MEM), 2 mM L-glutamine, 50 U/ml penicillin G sodium and 50 μg/ml streptomycin sulfate (all from Gibco BRL) supplemented by 10% (vol/vol) fetal bovine serum (FBS). The cells were transferred to a standard 100 mm tissue culture dish (Falcon) and incubated at 37° C. for 1-2 hours. […]
After cell attachment, the culture medium was exchanged for SFM. […] Counts were solubilized overnight by adding 100 μl 1 N KOH to each well, neutralized with 100 μl 1 N HCl, transferred to liquid scintillation vials and counted in 3 ml of Beckman Ready Safe liquid scintillation cocktail on a Packard 1600 TR counter. […] In this paper, proliferation is expressed as [^3 H]-thymidine incorporation normalized to [35]-methionine incorporation and calculated as [^3 H] dpm/ [35] dpm.
(In general: Dividing cells build labelled thymidine or BrdU into new DNA.)

B1: N-CAM: neural cell adhesion molecule purified from early postnatal rat brains by affinity chromatography, mainly polysialylated embryonic form (protein, UniProt P13596 20-858, looked up)
Neural cell adhesion molecule …: LQVDIVPSQGEISVGESKFFLCQVAGDAKDKDISWFSPNGEKLSPNQQRISVVWNDDDSSTLTIYNANIDDAGIYKCVVTAEDGTQSEATVNVKIFQKLMFKNAPTPQEFKEGEDAVIVCDVVSSLPPTIIWKHKGRDVILKKDVRFIVLSNNYLQIRGIKKTDEGTYRCEGRILARGEINFKDIQVIVNVPPTVQARQSIVNATANLGQSVTLVCDADGFPEPTMSWTKDGEPIENEEEDDEKHIFSDDSSELTIRNVDKNDEAEYVCIAENKAGEQDASIHLKVFAKPKITYVENQTAMELEEQVTLTCEASGDPIPSITWRTSTRNISSEEKASWTRPEKQETLDGHMVVRSHARVSSLTLKSIQYTDAGEYICTASNTIGQDSQSMYLEVQYAPKLQGPVAVYTWEGNQVNITCEVFAYPSATISWFRDGQLLPSSNYSNIKIYNTPSASYLEVTPDSENDFGNYNCTAVNRIGQESLEFILVQADTPSSPSIDRVEPYSSTAQVQFDEPEATGGVPILKYKAEWKSLGEEAWHSKWYDAKEANMEGIVTIMGLKPETRYAVRLAALNGKGLGEISAATEFKTQPVREPSAPKLEGQMGEDGNSIKVNLIKQDDGGSPIRHYLVKYRALASEWKPEIRLPSGSDHVMLKSLDWNAEYEVYVVAENQQGKSKAAHFVFRTSAQPTAIPANGSPTAGLSTGAIVGILIVIFVLLLVVMDITCYFLNKCGLLMCIAVNLCGKAGPGAKGKDMEEGKAAFSKDESKEPIVEVRTEEERTPNHDGGKHTEPNETTPLTEPEKGPVETKSEPQESEAKPAPTEVKTVPNEATQTKENESKA
modifications: polysialylated embryonic form
B1: the cell morphology result reads like this: (N-CAM 10 μg/ml) “somewhat rounded appearance”; (N-CAM ≤2 μg/ml) “no gross changes in cell morphology”.
